{
  "source": "patent US20260234543A1",
  "about": "“MICROORGANISMS AND METHODS FOR REDUCING BY-PRODUCTS” (Genomatica, Inc., priority 2023, published 2026)",
  "tested_on": "acyl-CoA synthetase (ACS) (SEQ ID NO: 1)",
  "assay": "ACS activity on substrates of various chain lengths (enzymatic coupled assay for detection of AMP)",
  "format": "biochemical, Ruegeria pomeroyi",
  "conditions": "5 mM substrate, pH 7.5",
  "description": "Purified acyl-CoA synthetase (ACS) (GenBank Accession No. WP_011046428.1; see, SEQ ID NO: 1) was assayed for activity on a range of substrates of various chain lengths. The substrates tested, which were conjugate bases (or carboxylates) of C2-C8 carboxylic acids, included acetate (C2), acetoacetate (C4), butyrate (C4), (R)- and(S)-3-hydroxybutryate ((R)-3-HB and(S)-3HB; C4), succinate (C4), hexanoate (C6), adipate (C6), 6-aminocaproic acid (6ACA; C6), and octanoate (C8).\nAn enzymatic coupled assay for detection of AMP, which is a co-product of the synthetase/ligase enzymatic reaction catalyzed by the ACS/CoA ligase, was used. […] The ACS/CoA ligase enzymatic reactions were followed by monitoring NADH oxidation over time, by measuring absorbance at 340 nm.\nReactions were set up in 96-well absorbance plates, in aqueous buffer at pH 7.5, and 5 mM of conjugate base substrate, 250 μM of Coenzyme A (CoA), 1 mM of ATP, 5 mM of MgCl2, 1 mM of phospho (enol) pyruvate, 500 μM of NADH, and non-rate limiting concentrations of the three coupling enzymes (adenylate kinase, pyruvate dehydrogenase, and lactate dehydrogenase), were added for each reaction. The ACS enzyme was added at a concentration that was appropriate for measuring a linear change on absorbance over up to 20 minutes. […]",
  "note": "At least one compound was matched to its structure with a doubt left.",
  "data": [
    {"smiles": "CCCC(=O)O", "note": "[Butyrate, butyrate]", "values": [
      {"measurement": "Activity", "setting": "250 μM CoA, 1 mM ATP", "result": 70, "unit": "μM AMP/min/μM ACS"},
      {"measurement": "ACS activity on substrate (in words)", "result": "exhibits activity"}
    ]}
  ]
}
